Results taken from PubChem BioAssay AID2685 (National Center for Advancing Translational Sciences (NCATS), 2010).
This is one part of the list. These are further read-outs of the screen, such as a control signal, another cell line or another target. No call is given for them. Most of these compounds were active or inconclusive in the main read-out, so they are no random draw. The note in brackets gives the kind of curve behind each potency; many fits are weak.

Assay: qHTS Assay for Lipid Storage Modulators in Drosophila S3 Cells;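 on cell number change: cells counted by Cell Tracker Red CMTPX staining in the red channel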
Details: BODIPY lipid droplet fluorescence, 18-24 h; for cell number change: measured here: cell count max response, cells fed with added oleic acid
Summary of the method: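 Drosophila S3 cells loaded with oleic acid (400 uM, as added) and compounds at several concentrations; lipid droplets imaged by 488-nm laser-scanning cytometry, 500–530 nm intensity and object ratio to cell channel. Percent activity normalized to 20 uM Triacsin C.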

[1] = measured here: cell number channel AC50, cells fed with added oleic acid
[2] = measured here: lipid fluorescence (Fed channel) AC50, cells fed with added oleic acid

SMILES | cell number change | AC50 [1] | AC50 [2]
OC(CON=C1c2ccccc2-c2ccccc21)CN1CCNCC1 (configuration not stated) | -53% | 0.164 µM [falling, full curve, poor fit] | 
COc1ccc(CCNC(=O)c2cccnc2SC)cc1 | 20.7% |  | 6.51 µM [falling, full curve, poor fit]
C[n+]1ccccc1COc1ccc(C(C)(C)C)cc1 | 17.3% |  | 0.411 µM [falling, full curve]
c1ccc(CN2CCN(c3cnc4ccccc4n3)CC2)cc1 | -39.5% | 29.1 µM [falling, single point] | 29.1 µM [falling, single point]
CC(=O)C1[C@H](N(C)C)CC2C3CC=C4CC(O)CC[C@]4(C)C3CC[C@@]21C (some centres not stated) | -31.5% |  | 
Cn1c(O)c(C=NC(CC(N)=O)C(=O)O)c(=O)n(C)c1=O (configuration not stated) | 4.97% | 0.00651 µM [falling, full curve, poor fit] | 0.00461 µM [falling, full curve, poor fit]
COc1ccc(N2CCN(S(=O)(=O)c3cccc4nsnc34)CC2)cc1 | -0.772% |  | 
COc1ccc2nc(N3CCCC(C(=O)NCCc4ccc(OC)c(OC)c4)C3)sc2c1 (configuration not stated) | -5.86% |  | 29.1 µM [falling, single point]
CCN1CCN(C(=O)C(C)Nc2cc(Cl)c(OC)cc2OC)CC1 (configuration not stated) | 10.1% | 0.116 µM [falling, full curve, poor fit] | 
O/C(=C\c1nc2ccccc2[nH]1)c1cccs1 | 14.1% |  | 29.1 µM [falling, single point]
CCCN(CCC)Cc1c(C(=O)N/N=C/c2ccsc2)nnn1-c1nonc1N | 12.2% |  | 0.58 µM [falling, single point]
COCCCNC(=O)Cn1nnc(-c2ccc(NC(=O)c3cccnc3)cc2)n1 | 75.2% | 9.2 µM [rising, partial curve] | 14.6 µM [rising, partial curve]
CCOC(=O)c1c(-c2ccc(-c3ccccc3)cc2)csc1NC(=O)CNCCN(C)C | -62.1% | 29.1 µM [falling, single point] | 29.1 µM [falling, single point]
Cc1cccc(C)c1NC(=O)COC(=O)C1CC1 | 13.7% | 0.58 µM [rising, full curve, poor fit] | 0.326 µM [rising, full curve]
Cn1cc(C(=O)N/N=C/c2ccc3c(c2)OCO3)c2ccccc21 | -2.22% |  | 23.1 µM [rising, single point]
CCOC(=O)c1ccc(NC(=O)CSc2nnc(C)n2-c2ccccc2)cc1 | -34.8% | 0.0058 µM [falling, full curve, poor fit] | 
O=C(CSc1nc(O)c(Cc2ccccc2)c(=O)[nH]1)Nc1nc2c(s1)CCCC2 | -11.8% |  | 29.1 µM [falling, single point]
COc1ccc(-c2cc(C(=O)Nc3cc(C)nn3-c3ccccc3)no2)cc1 | 8.27% |  | 
Cc1ccc2nc(/C(C#N)=C\c3ccc(N4CCOCC4)o3)[nH]c2c1 | -48.3% | 8.2 µM [falling, single point] | 
COC(=O)[C@H]1Cc2c([nH]c3ccccc23)[C@H](c2ccccc2)N1 | 25% |  | 

SMILES | cell number change | AC50 [1] | AC50 [2]
COc1ccc(S(=O)(=O)N2CCOCC2)cc1NC(=O)COc1cccnc1[N+](=O)[O-] | 38.1% |  | 
CCCCn1c(SCC(=O)NCc2cccs2)nc2c1c(=O)n(C)c(=O)n2C | 20.9% | 1.46 µM [rising, full curve] | 0.92 µM [rising, full curve]
Cc1ccc(S(=O)(=O)N2CCC(C(=O)NCC(C)(C)N3CCOCC3)CC2)c(C)c1 | 0.414% |  | 
O=C(O)c1cccnc1Sc1ccc(Br)cc1 | 19.8% |  | 11.6 µM [rising, single point]
COc1ccc(CNC(=O)CN2C(=O)NC(C)(c3cccc4ccccc34)C2=O)cc1OC (configuration not stated) |  |  | 10.3 µM [falling, partial curve]
Cn1c(=O)oc2cc(S(=O)(=O)N3CCN(c4cccc(Cl)c4)CC3)ccc21 | 15.5% |  | 0.00461 µM [falling, full curve, poor fit]
O=C(N/N=C\c1cc2c(cc1[N+](=O)[O-])OCO2)c1cccs1 | -18.1% |  | 3.66 µM [rising, partial curve]
COCCn1c(SCC(=O)Nc2sccc2C(N)=O)nnc1-c1ccncc1 | 18.6% |  | 0.0058 µM [rising, full curve, poor fit]
CCN(C(=O)CSc1nc2nc(C)cc(C)n2n1)c1cccc(C)c1 | 29.6% | 5.17 µM [falling, single point] | 
COC(=O)/C=C1/S/C(=N/NC(=O)c2ccc(Cl)cc2Cl)NC1=O | 31% | 18.4 µM [rising, single point] | 
S=C(Nc1ccc(Br)cc1Cl)N1CCN(c2ccccn2)CC1 |  | 5.8 µM [rising, partial curve, poor fit] | 
COc1ccc(NC(=O)COC(=O)/C=C/C(=O)OCC(=O)Nc2ccc(OC)c(Cl)c2)cc1Cl | 3.79% |  | 4.61 µM [rising, single point]
CCCN(C(=O)COC(=O)CC1CCCCC1)c1c(N)n(Cc2ccccc2)c(=O)[nH]c1=O | 81.8% |  | 
NS(=O)(=O)c1ccc(NC=C2C(=O)OC3(CCCCC3)OC2=O)cc1 | 2.72% |  | 29.1 µM [rising, single point]
Cc1ccc(C(C)C)c(OCc2nnc(SCC(=O)Nc3nccs3)n2C)c1 |  | 0.461 µM [rising, single point] | 
COc1ccc(CCNC(=O)c2c(O)c3ccccc3n(C)c2=O)cc1 | 6.35% |  | 
COc1ccc([N+](=O)[O-])cc1NC(=O)C(C)OC(=O)C1CC(=O)N(Cc2ccco2)C1 (configuration not stated) | 11.2% |  | 
Cc1cc(N=Nc2ccccc2)c(NCC(O)C(O)C(O)CO)cc1C (configuration not stated) | -29% |  | 13 µM [falling, partial curve, poor fit]
Cc1oc(-c2ccc(Cl)cc2)nc1CN1CCC(C(=O)NCCCN2CCCC2=O)CC1 | 1.53% |  | 0.461 µM [rising, full curve]
CCOc1ccc(NC(=O)CN2C(=O)NC3(CCCC3)C2=O)cc1S(=O)(=O)N1CCCCC1 | 18.2% |  | 2.31 µM [falling, single point]

SMILES | cell number change | AC50 [1] | AC50 [2]
O=C(N/N=C/c1ccccn1)C(O)c1ccccc1 (configuration not stated) |  | 4.61 µM [falling, single point] | 
CCOc1ccc(CCNC(=O)COC(=O)c2ccc(C)c([N+](=O)[O-])c2)cc1OCC | -53.5% | 4.61 µM [falling, full curve, poor fit] | 11.6 µM [falling, single point]
COCCn1c(SCC(=O)Nc2sc(C)c(C)c2C#N)nnc1-c1ccc(OC)cc1 | -9.99% |  | 0.82 µM [rising, full curve, poor fit]
CCCC(=O)N(Cc1cc(=O)[nH]c2ccccc12)c1cccc(C)c1 | 21.5% |  | 
COc1ccc(Cn2c(=S)[nH]c3cc(C(=O)NCCCN4CCOCC4)ccc3c2=O)cc1 | 18.5% |  | 
CC(=O)Nc1ccc(NC(=O)CSc2nnc(-c3ccco3)n2Cc2ccco2)cc1 | -12.9% |  | 0.58 µM [rising, single point]
Nc1ncc2c(n1)CCN(c1ccc([N+](=O)[O-])cc1)C2 |  |  | 29.1 µM [falling, single point]
COc1cccc2sc(NNC(=O)c3nc4ccccc4s3)nc12 | -59.2% | 29.1 µM [falling, single point] | 18.4 µM [falling, single point]
Cc1ccc2c(Cl)cc(Cl)c(OCC(=O)Nc3ccc(C)c(S(=O)(=O)N(C)C)c3)c2n1 | 4.31% |  | 23.1 µM [rising, partial curve, poor fit]
COc1ccc(NC(=O)CSc2nc3ccsc3c(=O)n2CCC(=O)O)c(OC)c1 | 21.8% |  | 
COc1cc(C(=O)NCCC(=O)NCc2c(F)cc(F)cc2F)cc(OC)c1OC | 14.5% |  | 0.164 µM [rising, single point]
CC(C)(C)c1cc(CN(CCO)CCO)cc(C(C)(C)C)c1O | -39.3% | 0.13 µM [falling, full curve, poor fit] | 1.16 µM [falling, full curve]
CCOc1ccc(OCCCC(=O)N(CC)CC(=O)Nc2c(F)cccc2F)cc1 | -4.95% |  | 29.1 µM [falling, single point]
Cc1ccc(N2CC(C(=O)Nc3ncc([N+](=O)[O-])s3)CC2=O)cc1 (configuration not stated) | -31.2% | 20.6 µM [falling, single point] | 29.1 µM [falling, single point]
COc1ccc(N2CCN(C(=O)c3ccc(CNS(=O)(=O)c4cc(C)ccc4C)cc3)CC2)cc1 |  |  | 1.64 µM [falling, full curve]
O=C(COc1ccc2c3c(c(=O)oc2c1)CCC3)N[C@@H](Cc1ccccc1)C(=O)O | 42.8% | 18.4 µM [rising, partial curve] | 0.58 µM [rising, single point]
CN(CC(=O)Nc1cccc(F)c1)C(=O)c1ccc(OCC2CCCO2)cc1 (configuration not stated) | -13.5% |  | 6.51 µM [falling, single point]
CC1(C)CC(=O)C2=C(C1)N(c1ccc(F)cc1)C(=O)C2(NC(=O)c1ccccc1)C(F)(F)F (configuration not stated) | -62.6% | 29.1 µM [falling, single point] | 6.51 µM [rising, single point]
COc1ccc(/C=C2/CC/C(=C\c3ccc(OC)c(OC)c3OC)C2=O)c(OC)c1OC | -16.2% |  | 5.8 µM [rising, partial curve]

18 compounds out of the list, arranged by formula weight, rising:
SMILES | cell number change | AC50 [1] | AC50 [2]
Nc1ncc2c(n1)CCN(c1ccc([N+](=O)[O-])cc1)C2 |  |  | 29.1 µM [falling, single point]
COc1ccc(CCNC(=O)c2cccnc2SC)cc1 | 20.7% |  | 6.51 µM [falling, full curve, poor fit]
c1ccc(CN2CCN(c3cnc4ccccc4n3)CC2)cc1 | -39.5% | 29.1 µM [falling, single point] | 29.1 µM [falling, single point]
O=C(N/N=C\c1cc2c(cc1[N+](=O)[O-])OCO2)c1cccs1 | -18.1% |  | 3.66 µM [rising, partial curve]
CC(C)(C)c1cc(CN(CCO)CCO)cc(C(C)(C)C)c1O | -39.3% | 0.13 µM [falling, full curve, poor fit] | 1.16 µM [falling, full curve]
CCN(C(=O)CSc1nc2nc(C)cc(C)n2n1)c1cccc(C)c1 | 29.6% | 5.17 µM [falling, single point] | 
COC(=O)/C=C1/S/C(=N/NC(=O)c2ccc(Cl)cc2Cl)NC1=O | 31% | 18.4 µM [rising, single point] | 
O=C(COc1ccc2c3c(c(=O)oc2c1)CCC3)N[C@@H](Cc1ccccc1)C(=O)O | 42.8% | 18.4 µM [rising, partial curve] | 0.58 µM [rising, single point]
Cn1c(=O)oc2cc(S(=O)(=O)N3CCN(c4cccc(Cl)c4)CC3)ccc21 | 15.5% |  | 0.00461 µM [falling, full curve, poor fit]
COCCn1c(SCC(=O)Nc2sccc2C(N)=O)nnc1-c1ccncc1 | 18.6% |  | 0.0058 µM [rising, full curve, poor fit]
COc1ccc([N+](=O)[O-])cc1NC(=O)C(C)OC(=O)C1CC(=O)N(Cc2ccco2)C1 (configuration not stated) | 11.2% |  | 
CC(=O)Nc1ccc(NC(=O)CSc2nnc(-c3ccco3)n2Cc2ccco2)cc1 | -12.9% |  | 0.58 µM [rising, single point]
COc1ccc(NC(=O)CSc2nc3ccsc3c(=O)n2CCC(=O)O)c(OC)c1 | 21.8% |  | 
COc1ccc(S(=O)(=O)N2CCOCC2)cc1NC(=O)COc1cccnc1[N+](=O)[O-] | 38.1% |  | 
COc1ccc2nc(N3CCCC(C(=O)NCCc4ccc(OC)c(OC)c4)C3)sc2c1 (configuration not stated) | -5.86% |  | 29.1 µM [falling, single point]
Cc1oc(-c2ccc(Cl)cc2)nc1CN1CCC(C(=O)NCCCN2CCCC2=O)CC1 | 1.53% |  | 0.461 µM [rising, full curve]
CC1(C)CC(=O)C2=C(C1)N(c1ccc(F)cc1)C(=O)C2(NC(=O)c1ccccc1)C(F)(F)F (configuration not stated) | -62.6% | 29.1 µM [falling, single point] | 6.51 µM [rising, single point]
COc1ccc(NC(=O)COC(=O)/C=C/C(=O)OCC(=O)Nc2ccc(OC)c(Cl)c2)cc1Cl | 3.79% |  | 4.61 µM [rising, single point]
